These results are taken from publication PMC7819943, “Rice protein-binding microarrays: a tool to detect cis-acting elements near promoter regions in rice”.

This is one part of the list.

This test has as its target T1, OsSMF1 (Oryza sativa, UniProt Q6ZLB0 1-436).
T1 sequence: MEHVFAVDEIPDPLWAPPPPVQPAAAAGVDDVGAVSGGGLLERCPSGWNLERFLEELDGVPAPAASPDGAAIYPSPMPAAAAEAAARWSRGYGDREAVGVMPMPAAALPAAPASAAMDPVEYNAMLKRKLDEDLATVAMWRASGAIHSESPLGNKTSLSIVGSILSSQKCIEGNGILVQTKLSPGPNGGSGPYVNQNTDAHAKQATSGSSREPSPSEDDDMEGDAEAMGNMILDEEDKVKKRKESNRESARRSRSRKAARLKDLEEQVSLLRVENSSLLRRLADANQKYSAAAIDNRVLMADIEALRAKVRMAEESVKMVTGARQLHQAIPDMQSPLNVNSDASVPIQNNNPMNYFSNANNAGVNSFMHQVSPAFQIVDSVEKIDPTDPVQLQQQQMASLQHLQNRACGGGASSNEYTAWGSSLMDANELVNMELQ
The test is described as follows: protein-binding microarray (RPBM); PBS, 2% BSA, 51.3 ng/ul salmon testes DNA, 50 uM zinc acetate, 200 nM TF, 25 C, 1 h; high values mean tight binding. The conditions noted are these: protein: recombinant; tags: N-terminal polyhistidine and DsRed monomer fusion (pET32a); chain copies: 2; label: CyDye5-dUTP incorporated in the synthesized complementary strand; 3' TTTTT single-stranded linker to array surface; dsDNA, one strand shown. A digest of the protocol: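 Binding signal is defined as the fluorescence intensity of each feature in arbitrary units, read on an Axon 4000B scanner. Transcription factors with N-terminal polyhistidine and DsRed fusions came from E. coli BL21-CodonPlus and were purified on Ni–NTA. They were incubated at 200 nM for 1 h at 25 °C on a custom Agilent array that had been made double-stranded with Cy5-dUTP, with 50 µM zinc acetate present, and the array was washed.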
For “TCTCAACGACACGACGACATCCGCTTGTATTTCTTTCGTTCGGAGTCACCTAGTGCAG”, the binding signal is 3560 fluorescence intensity (a.u.).
“CTGGTGGTCTACTCGCCGATGTCAACGTGCCACCTGCACTCGGAGTCACCTAGTGCAG”: the binding signal is 3190 fluorescence intensity (a.u.).
As to “TATACTTGTTGGCTGCTGCTTTGTGTGTGGTGTGTTGTTTCGGAGTCACCTAGTGCAG”, the binding signal is 4510 fluorescence intensity (a.u.).
As to “TTCCAAGAACAAGGAAGAGGCAAGGACGTGGTGAAGCTTGCGGAGTCACCTAGTGCAG”, the binding signal is 3190 fluorescence intensity (a.u.).
The result for “GATGATGACGACGAGTCGACGATGCGCTTGCAAGCCAAACCGGAGTCACCTAGTGCAG” reads 17400 fluorescence intensity (a.u.).
For “AAGCATGGTCTCCTTCGCCATTGCTTTCGCCACTTCGGTCCGGAGTCACCTAGTGCAG”, the binding signal was 24300 fluorescence intensity (a.u.).
“CATGAATATTCATGAGTCATAGTTTGCAAGTTTAGGAAAACGGAGTCACCTAGTGCAG”: the binding signal was 3520 fluorescence intensity (a.u.).
With “TGGGTGATGACGGAGCTAGTCCGCCACCCACGGATCCTCACGGAGTCACCTAGTGCAG”, the binding signal was 3440 fluorescence intensity (a.u.).
Consider “TCATTCGCCACATCCGCAAACCCTATAAATCTCCCACCCCCGGAGTCACCTAGTGCAG”, for which the binding signal is 4580 fluorescence intensity (a.u.).
For “CCTCCAAGCTTATCATGTCATGTTGGCTTCTTGAATGCACCGGAGTCACCTAGTGCAG”, the binding signal is 3860 fluorescence intensity (a.u.).
Next, “AGTTAGGCGTTTCATGAGCCGTCCGATCGTCAAGTAAACGCGGAGTCACCTAGTGCAG”: 3180 fluorescence intensity (a.u.); “TGGTAAGCGGAGCGACGTGGCGCGGAGGAGGATAGAAATGCGGAGTCACCTAGTGCAG”: 4290 fluorescence intensity (a.u.).
On to “ACCCAGCCAATTGACAATTCGATGGTGACTAATGGTGAACCGGAGTCACCTAGTGCAG”, for which the binding signal was 4690 fluorescence intensity (a.u.).
As for “GAAGTATGTTGTTTGCTTGTGTTTGTGATGCTATATTGTTCGGAGTCACCTAGTGCAG”, the binding signal is 3500 fluorescence intensity (a.u.).
Take “GATGGCCACTGCCACCAGCACTACAATTATGCATATCCCTCGGAGTCACCTAGTGCAG”: the binding signal is 3340 fluorescence intensity (a.u.).
As to “AATATCAATGCACGTGGTTGGTGAAGATTCCATATGGCATCGGAGTCACCTAGTGCAG”, the binding signal was 3810 fluorescence intensity (a.u.).
On to “GAAGAAGATGACATAAGGGGTAGTAATTGGTGTGACTTTTCGGAGTCACCTAGTGCAG”, for which the binding signal is 4200 fluorescence intensity (a.u.).
Consider “GTGAAGGAAATAATTTCATGAGACTGGCTTATTCAGCAGTCGGAGTCACCTAGTGCAG”, for which the binding signal is 3920 fluorescence intensity (a.u.).
Next, “AGTGGCCAATCTACAAATGCGAGTATCAGCCAAGGTGATGCGGAGTCACCTAGTGCAG”: 3440 fluorescence intensity (a.u.).
Turning to “CCTCGAGCCGAGACGAGACGAGACGGGTTCGTCTCCTTTACGGAGTCACCTAGTGCAG”, the binding signal was 3180 fluorescence intensity (a.u.).
On to “AACTTCTCAATGTGTGGCCCCGAGCTGTGGCTTCACAGCTCGGAGTCACCTAGTGCAG”, for which the binding signal is 63300 fluorescence intensity (a.u.).
Consider “ATGCTACTTATCTCACATGATGTCTTGGGTATTGTGTAGACGGAGTCACCTAGTGCAG”, for which the binding signal was 3490 fluorescence intensity (a.u.).
As to “GATCCTAGTCACAGACCAACATCGGGAGGCGGAGATCTCTCGGAGTCACCTAGTGCAG”, the binding signal was 3280 fluorescence intensity (a.u.).
On to “GAAACTTTCCTACGCACAAACTTTCAACTTTTACGTCACACGGAGTCACCTAGTGCAG”, for which the binding signal was 3340 fluorescence intensity (a.u.).
Consider “AAGATGCAGGCAGAGGCTATTCTCCACGTGGCCATCTCCCCGGAGTCACCTAGTGCAG”, for which the binding signal is 12100 fluorescence intensity (a.u.).
Take “TGAGGCCCATGTCACCTTCCTCCTCCCATCTCATTCTCATCGGAGTCACCTAGTGCAG”: the binding signal was 5070 fluorescence intensity (a.u.).
Take “AATATGTAAAACTACATGTATACATAAAAGTATATTTAACCGGAGTCACCTAGTGCAG”: the binding signal was 5340 fluorescence intensity (a.u.).
Regarding “ACTATATTTTAGTATTTTCTATTTTCGATGCTTTACAGCCCGGAGTCACCTAGTGCAG”, the binding signal was 3940 fluorescence intensity (a.u.).
As for “GCCTTCCGTTCCGCTCCTCTACCGCCGCGTCAAGATTCCCCGGAGTCACCTAGTGCAG”, the binding signal is 4950 fluorescence intensity (a.u.).
Next, “CGCATCTGCACACGTGGCGATCTTCCATTGGCTGGGGCGTCGGAGTCACCTAGTGCAG”: 15300 fluorescence intensity (a.u.); “GAATGGTAGTTATCCCACGTGGCATCATTTGGCGCCAAGGCGGAGTCACCTAGTGCAG”: 19900 fluorescence intensity (a.u.).
Turning to “GAGCGCGGCACGCGAGCATCAGGTGGTGCCGTGGTGGTGGCGGAGTCACCTAGTGCAG”, the binding signal was 3240 fluorescence intensity (a.u.).
For the sequence “AAGCATGTGACGAGGATCCTCGTCGTGATATTCCGTCCATCGGAGTCACCTAGTGCAG”, the binding signal was 5800 fluorescence intensity (a.u.).
The result for “GACATAGCAGACGCATCTGACAGACACACGTAATCTCAACCGGAGTCACCTAGTGCAG” reads 4600 fluorescence intensity (a.u.); that for “GGCTAGGTGCAGTGACGTGTGTCCACTCCCCGTTGATTTGCGGAGTCACCTAGTGCAG”, 13600 fluorescence intensity (a.u.).
On to “GACCTGTGGGGCCCACGTGGGTCCCACGCTGAGTCAGCCGCGGAGTCACCTAGTGCAG”, for which the binding signal is 20000 fluorescence intensity (a.u.).
On to “AGGCTTCTCAAACAGGCGTCACAACATACCGTGCTATCGTCGGAGTCACCTAGTGCAG”, for which the binding signal is 3290 fluorescence intensity (a.u.).
With “TTGACAATGTGGTGCTACAGTAAATATTTGATAATGATGGCGGAGTCACCTAGTGCAG”, the binding signal was 3330 fluorescence intensity (a.u.).
In the case of “GATGAGTGATGAAGCAGCTGTTTGTGATTAGATCTGTCTGCGGAGTCACCTAGTGCAG”, the binding signal was 3730 fluorescence intensity (a.u.).
Consider “TTCTAGACCTACTTAATTAACACTGCCAACTTGGTTAACACGGAGTCACCTAGTGCAG”, for which the binding signal is 3690 fluorescence intensity (a.u.).
Consider “ACGCTAGCATCACTGCATCTGCACACACTGCACTTGCCTTCGGAGTCACCTAGTGCAG”, for which the binding signal is 3180 fluorescence intensity (a.u.).
On to “ACAGGTATCTAGTCACTAGTGACGGGCCATATAGATCCAGCGGAGTCACCTAGTGCAG”, for which the binding signal is 5010 fluorescence intensity (a.u.).
For the sequence “AGATATTGATTATGTTTAGCCATGTGGCTCCTTAAATGGGCGGAGTCACCTAGTGCAG”, the binding signal is 4520 fluorescence intensity (a.u.).
As for “AATTCAAATAAACCGAGATAGAATGCGTGTGCCAGTTTAGCGGAGTCACCTAGTGCAG”, the binding signal is 3470 fluorescence intensity (a.u.).
In the case of “GTGTACACTCCGGCTTGGCCCATTAATCTTTAGGCCCAACCGGAGTCACCTAGTGCAG”, the binding signal was 19500 fluorescence intensity (a.u.).
Regarding “ATGAAACAGAAGAGTGGATATCTTATACATACTAACTACACGGAGTCACCTAGTGCAG”, the binding signal is 21900 fluorescence intensity (a.u.).
In the case of “CATGTCAGGACGCCACGTCATCATGCTCTCTCTTTCCCCTCGGAGTCACCTAGTGCAG”, the binding signal was 33600 fluorescence intensity (a.u.).
“GCCTTCCCCTCCCACGTGGATCCCCGCGCAACCGTCAGATCGGAGTCACCTAGTGCAG”: the binding signal is 9890 fluorescence intensity (a.u.).
The result for “AGCTGTGCCAACGAGCCCTTAATTAGTTATTATCTCTTCTCGGAGTCACCTAGTGCAG” reads 44600 fluorescence intensity (a.u.); that for “TGTGTGTCCGTATGTTTGATGTGACAAACAAACTTAAAATCGGAGTCACCTAGTGCAG”, 28600 fluorescence intensity (a.u.); that for “ATCAAGAATTGAGTACCTAGTACTATGTGGCATTCCAGTGCGGAGTCACCTAGTGCAG”, 3990 fluorescence intensity (a.u.).
Consider “ACCTTCTAGACAAGGGTATGATGACATGTACCGATCCCAACGGAGTCACCTAGTGCAG”, for which the binding signal was 6680 fluorescence intensity (a.u.).
The result for “GTGGCGTCTGTGACCGTCAGGCGTCAGCTCGTGTCCTCGCCGGAGTCACCTAGTGCAG” reads 4120 fluorescence intensity (a.u.); that for “AATCCGAGTAGTCATTGTCGTTTCCATGCAGAATTATGGTCGGAGTCACCTAGTGCAG”, 4030 fluorescence intensity (a.u.).
